{"source": "patent US20260373156A1", "about": "“CANCER TREATMENTS USING MTA-COOPERATIVE PRMT5 INHIBITORS” (AMGEN INC., priority 2022, published 2026)", "key": {"[1]": {"test_system": "UM-UC-3 cells", "experiment": "CellTiter-Glo viability and CalcuSyn synergy, PRMT5 inhibitor + sotorasib, 6 days", "type": "cell-based", "settings": "Compound B 0.2916 μM + sotorasib 0.5 μM", "experimental": "Bladder cancer cell lines (UM-UC-3) were treated with the combination of PRMT5 inhibitor (i.e., Compound B) and sotorasib for 6 days. […] Raw luminescent values were converted to fraction affected (Fa) with the following equation: […]\nSynergy analysis was performed using the CalcuSyn software to determine CI scores based on the drug concentrations used and corresponding Fa values. Results are shown in Table 6 below. *CI Values (Calcusyn): Strong Synergism: 0.1-0.3; Synergism: 0.3-0.7; Moderate Synergism: 0.7-0.85; Slight Synergism: 0.85-0.9; Nearly Additive: 0.9-1.1."}, "[2]": {"test_system": "MIAPACA2 cells", "settings": "150 nM Compound B + 50 nM sotorasib, over 8 days"}}, "data": [{"smiles": "Cc1cc2cc(C(=O)N(Cc3ccc(C(F)(F)F)cn3)[C@@H](C)c3ncccn3)ccc2nc1N", "note": "[Compound B]", "values": [{"measurement": "Combination Fa", "setting": "[1]", "result": 0.7953}, {"measurement": "Computed CI value", "setting": "[1]", "result": 0.958}, {"measurement": "cell counts", "setting": "[2]", "result": "significantly reduced pancreatic cancer (MIAPACA2) cell counts"}]}]}
